Measurements taken from the supplement of paper PMC11438910.
The list shows a part of the results. Most of these values are background signal.

Legend:
Test in all cases: fluorescence intensity of antibody binding to polysaccharide-coupled beads; higher = stronger binding
[1] = target: pneumococcal polysaccharide Pn23F
[2] = target: pneumococcal polysaccharide Pn24A
[3] = target: pneumococcal polysaccharide Pn24B
[4] = target: pneumococcal polysaccharide Pn24F
[5] = target: pneumococcal polysaccharide Pn25A
[6] = target: pneumococcal polysaccharide Pn25F
[7] = target: pneumococcal polysaccharide Pn27
[8] = target: pneumococcal polysaccharide Pn28A
[9] = target: pneumococcal polysaccharide Pn28F
[10] = target: pneumococcal polysaccharide Pn29
[11] = target: pneumococcal polysaccharide Pn3
[12] = target: pneumococcal polysaccharide Pn31
[13] = target: pneumococcal polysaccharide Pn32A
[14] = target: pneumococcal polysaccharide Pn32F
[15] = target: pneumococcal polysaccharide Pn33A
[16] = target: pneumococcal polysaccharide Pn33B
[17] = target: pneumococcal polysaccharide Pn33C
[18] = target: pneumococcal polysaccharide Pn33D
[19] = target: pneumococcal polysaccharide Pn33F
[20] = target: pneumococcal polysaccharide Pn34
[21] = target: pneumococcal polysaccharide Pn35A
[22] = target: pneumococcal polysaccharide Pn35B
[23] = target: pneumococcal polysaccharide Pn35C
[24] = antibody concentration 2.8593 ng/mL
[25] = antibody concentration 15.2894 ng/mL
[26] = antibody concentration 81.7561 ng/mL
[27] = antibody concentration 437.17 ng/mL
[28] = antibody concentration 2337.65 ng/mL
[29] = antibody concentration 12500 ng/mL
[30] = antibody concentration 0.1 ng/mL
[31] = antibody concentration 0.534724 ng/mL

B1: 4-127.2 (protein)
chain 1: QVQLQESGPGLVKPSETLSLTCAVSGYSVNSGHGWTWIRQSPGKGLEWIGYIGGGSGSSNYNPSLKSRVTISKDTSNNQLSLKLRSLTTADTAMYYCARRVPADRSGNDYWGQGVLVTVSS
chain 2: QSVLTQPPSVSGDPGQRVTISCTGSSSNIGDYYGYWYQQFPGTAPKLLIFDDNNRPSGISDRFSGSKAGTSASLTITGLQPGDEADYYCGAWDGSLNAHVFGSGTKLTVL
fluorescence intensity [1, 24]: 17.5 MFI | fluorescence intensity [1, 25]: 17.5 MFI | fluorescence intensity [1, 26]: 16.8 MFI | fluorescence intensity [1, 27]: 20.8 MFI | fluorescence intensity [1, 28]: 22 MFI | fluorescence intensity [1, 29]: 28.5 MFI | fluorescence intensity [2, 30]: 15 MFI | fluorescence intensity [2, 31]: 15.2 MFI | fluorescence intensity [2, 24]: 15 MFI | fluorescence intensity [2, 25]: 16.2 MFI | fluorescence intensity [2, 26]: 15.2 MFI | fluorescence intensity [2, 27]: 15 MFI | fluorescence intensity [2, 28]: 16.8 MFI | fluorescence intensity [2, 29]: 28 MFI | fluorescence intensity [3, 30]: 16.8 MFI | fluorescence intensity [3, 31]: 17 MFI | fluorescence intensity [3, 24]: 16 MFI | fluorescence intensity [3, 25]: 18.5 MFI | fluorescence intensity [3, 26]: 17.5 MFI | fluorescence intensity [3, 27]: 18.5 MFI | fluorescence intensity [3, 28]: 23 MFI | fluorescence intensity [3, 29]: 50 MFI | fluorescence intensity [4, 30]: 19 MFI | fluorescence intensity [4, 31]: 16 MFI | fluorescence intensity [4, 24]: 18 MFI | fluorescence intensity [4, 25]: 17 MFI | fluorescence intensity [4, 26]: 18.5 MFI | fluorescence intensity [4, 27]: 20.5 MFI | fluorescence intensity [4, 28]: 27.8 MFI | fluorescence intensity [4, 29]: 40.5 MFI | fluorescence intensity [5, 30]: 23 MFI | fluorescence intensity [5, 31]: 23 MFI | fluorescence intensity [5, 24]: 22.8 MFI | fluorescence intensity [5, 25]: 23.5 MFI | fluorescence intensity [5, 26]: 23.5 MFI | fluorescence intensity [5, 27]: 27 MFI | fluorescence intensity [5, 28]: 28.5 MFI | fluorescence intensity [5, 29]: 32 MFI | fluorescence intensity [6, 30]: 30 MFI | fluorescence intensity [6, 31]: 31.5 MFI | fluorescence intensity [6, 24]: 29 MFI | fluorescence intensity [6, 25]: 29.5 MFI | fluorescence intensity [6, 26]: 30 MFI | fluorescence intensity [6, 27]: 30 MFI | fluorescence intensity [6, 28]: 31.5 MFI | fluorescence intensity [6, 29]: 45.5 MFI | fluorescence intensity [7, 30]: 16.5 MFI | fluorescence intensity [7, 31]: 15.5 MFI | fluorescence intensity [7, 24]: 16 MFI | fluorescence intensity [7, 25]: 15.5 MFI | fluorescence intensity [7, 26]: 18 MFI | fluorescence intensity [7, 27]: 22 MFI | fluorescence intensity [7, 28]: 38.8 MFI | fluorescence intensity [7, 29]: 187 MFI | fluorescence intensity [8, 30]: 27 MFI | fluorescence intensity [8, 31]: 26 MFI | fluorescence intensity [8, 24]: 24.5 MFI | fluorescence intensity [8, 25]: 26.8 MFI | fluorescence intensity [8, 26]: 25.8 MFI | fluorescence intensity [8, 27]: 30 MFI | fluorescence intensity [8, 28]: 27.8 MFI | fluorescence intensity [8, 29]: 33.5 MFI | fluorescence intensity [9, 30]: 27.8 MFI | fluorescence intensity [9, 31]: 29 MFI | fluorescence intensity [9, 24]: 27.8 MFI | fluorescence intensity [9, 25]: 27.5 MFI | fluorescence intensity [9, 26]: 29 MFI | fluorescence intensity [9, 27]: 30.8 MFI | fluorescence intensity [9, 28]: 33.2 MFI | fluorescence intensity [9, 29]: 94 MFI | fluorescence intensity [10, 30]: 16 MFI | fluorescence intensity [10, 31]: 16 MFI | fluorescence intensity [10, 24]: 15.5 MFI | fluorescence intensity [10, 25]: 15.5 MFI | fluorescence intensity [10, 26]: 14.5 MFI | fluorescence intensity [10, 27]: 19 MFI | fluorescence intensity [10, 28]: 26 MFI | fluorescence intensity [10, 29]: 119 MFI | fluorescence intensity [11, 30]: 16 MFI | fluorescence intensity [11, 31]: 28.5 MFI | fluorescence intensity [11, 24]: 71 MFI | fluorescence intensity [11, 25]: 312 MFI | fluorescence intensity [11, 26]: 1440 MFI | fluorescence intensity [11, 27]: 4680 MFI | fluorescence intensity [11, 28]: 6570 MFI | fluorescence intensity [11, 29]: 7280 MFI | fluorescence intensity [12, 30]: 13 MFI | fluorescence intensity [12, 31]: 13.5 MFI | fluorescence intensity [12, 24]: 13.5 MFI | fluorescence intensity [12, 25]: 13.5 MFI | fluorescence intensity [12, 26]: 13.5 MFI | fluorescence intensity [12, 27]: 16.8 MFI | fluorescence intensity [12, 28]: 23.8 MFI | fluorescence intensity [12, 29]: 129 MFI | fluorescence intensity [13, 30]: 17.5 MFI | fluorescence intensity [13, 31]: 18 MFI | fluorescence intensity [13, 24]: 16.8 MFI | fluorescence intensity [13, 25]: 16.5 MFI | fluorescence intensity [13, 26]: 17.2 MFI | fluorescence intensity [13, 27]: 21.2 MFI | fluorescence intensity [13, 28]: 22.5 MFI | fluorescence intensity [13, 29]: 44 MFI | fluorescence intensity [14, 30]: 28 MFI | fluorescence intensity [14, 31]: 24.8 MFI | fluorescence intensity [14, 24]: 26.5 MFI | fluorescence intensity [14, 25]: 26.5 MFI | fluorescence intensity [14, 26]: 28 MFI | fluorescence intensity [14, 27]: 34.5 MFI | fluorescence intensity [14, 28]: 40 MFI | fluorescence intensity [14, 29]: 52 MFI | fluorescence intensity [15, 30]: 17.2 MFI | fluorescence intensity [15, 31]: 18 MFI | fluorescence intensity [15, 24]: 17.5 MFI | fluorescence intensity [15, 25]: 18 MFI | fluorescence intensity [15, 26]: 17.5 MFI | fluorescence intensity [15, 27]: 20 MFI | fluorescence intensity [15, 28]: 69.5 MFI | fluorescence intensity [15, 29]: 746 MFI | fluorescence intensity [16, 30]: 18 MFI | fluorescence intensity [16, 31]: 17 MFI | fluorescence intensity [16, 24]: 16.5 MFI | fluorescence intensity [16, 25]: 17 MFI | fluorescence intensity [16, 26]: 18 MFI | fluorescence intensity [16, 27]: 19 MFI | fluorescence intensity [16, 28]: 19 MFI | fluorescence intensity [16, 29]: 24 MFI | fluorescence intensity [17, 30]: 19.5 MFI | fluorescence intensity [17, 31]: 17.5 MFI | fluorescence intensity [17, 24]: 17.8 MFI | fluorescence intensity [17, 25]: 19 MFI | fluorescence intensity [17, 26]: 18.5 MFI | fluorescence intensity [17, 27]: 17.5 MFI | fluorescence intensity [17, 28]: 21.2 MFI | fluorescence intensity [17, 29]: 73.8 MFI | fluorescence intensity [18, 30]: 15 MFI | fluorescence intensity [18, 31]: 16 MFI | fluorescence intensity [18, 24]: 16.5 MFI | fluorescence intensity [18, 25]: 14.8 MFI | fluorescence intensity [18, 26]: 16 MFI | fluorescence intensity [18, 27]: 17 MFI | fluorescence intensity [18, 28]: 17.5 MFI | fluorescence intensity [18, 29]: 33 MFI | fluorescence intensity [19, 30]: 12.2 MFI | fluorescence intensity [19, 31]: 12.5 MFI | fluorescence intensity [19, 24]: 13 MFI | fluorescence intensity [19, 25]: 12.5 MFI | fluorescence intensity [19, 26]: 13 MFI | fluorescence intensity [19, 27]: 17.5 MFI | fluorescence intensity [19, 28]: 39.8 MFI | fluorescence intensity [19, 29]: 278 MFI | fluorescence intensity [20, 30]: 13.5 MFI | fluorescence intensity [20, 31]: 13 MFI | fluorescence intensity [20, 24]: 12.2 MFI | fluorescence intensity [20, 25]: 13.8 MFI | fluorescence intensity [20, 26]: 13 MFI | fluorescence intensity [20, 27]: 14.5 MFI | fluorescence intensity [20, 28]: 14.5 MFI | fluorescence intensity [20, 29]: 21.2 MFI | fluorescence intensity [21, 30]: 16.5 MFI | fluorescence intensity [21, 31]: 15.5 MFI | fluorescence intensity [21, 24]: 16.5 MFI | fluorescence intensity [21, 25]: 16 MFI | fluorescence intensity [21, 26]: 16 MFI | fluorescence intensity [21, 27]: 17 MFI | fluorescence intensity [21, 28]: 24.2 MFI | fluorescence intensity [21, 29]: 126 MFI | fluorescence intensity [22, 30]: 17 MFI | fluorescence intensity [22, 31]: 17 MFI | fluorescence intensity [22, 24]: 19 MFI | fluorescence intensity [22, 25]: 17.5 MFI | fluorescence intensity [22, 26]: 18.5 MFI | fluorescence intensity [22, 27]: 19.5 MFI | fluorescence intensity [22, 28]: 22 MFI | fluorescence intensity [22, 29]: 83.8 MFI | fluorescence intensity [23, 30]: 19.5 MFI | fluorescence intensity [23, 31]: 18.5 MFI | fluorescence intensity [23, 24]: 19.5 MFI | fluorescence intensity [23, 25]: 19 MFI | fluorescence intensity [23, 26]: 20 MFI | fluorescence intensity [23, 27]: 20.5 MFI
